From PubChem BioAssay AID2551 (National Center for Advancing Translational Sciences (NCATS), 2010)
The campaign covered roughly 310,000 compounds. About 17,000 (5.5%) were called active. The inconclusive results got no clear call from the source; some entries with a clear call stand among them for comparison. Calls come from the whole dose curve; as a rule, active = well fitted inhibition curve with a large enough effect; inconclusive = small, poorly fitted or top-dose-only effect, or effect the other way; inactive = no such curve, though single readings can be large or run the other way. Potencies beside an inconclusive call are fits to weak or partial responses and may not hold up.

The chains behind the UniProt entries cited, without tags or fusion partners. Where a name states a change or a piece, a line headed by the entry shows the natural chain unless it says otherwise.
UniProt P51450: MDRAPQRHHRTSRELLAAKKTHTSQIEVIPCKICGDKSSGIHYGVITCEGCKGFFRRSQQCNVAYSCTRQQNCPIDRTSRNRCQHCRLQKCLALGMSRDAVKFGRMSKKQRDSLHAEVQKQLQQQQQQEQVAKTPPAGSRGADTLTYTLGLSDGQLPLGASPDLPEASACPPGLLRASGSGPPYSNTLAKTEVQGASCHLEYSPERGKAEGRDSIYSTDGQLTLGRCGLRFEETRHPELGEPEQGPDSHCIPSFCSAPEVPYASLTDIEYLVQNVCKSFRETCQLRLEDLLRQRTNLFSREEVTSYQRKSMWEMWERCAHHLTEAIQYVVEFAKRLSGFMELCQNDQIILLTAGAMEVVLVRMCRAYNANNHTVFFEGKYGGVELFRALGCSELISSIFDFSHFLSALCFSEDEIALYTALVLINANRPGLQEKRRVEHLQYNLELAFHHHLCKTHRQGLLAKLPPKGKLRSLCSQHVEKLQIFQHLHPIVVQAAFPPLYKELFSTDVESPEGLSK

Molecular target: Nuclear receptor ROR-gamma (Mus musculus) (UniProt P51450)
Test: qHTS for inhibitors of ROR gamma transcriptional activity; note: nearly all actives have a fitted effect of over 60% in size
Conditions: Drosophila S2 Gal4-RORgamma UAS-luciferase reporter, 20 h; series mostly up to 53.6 µM
Method in brief: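 Drosophila S2 cells stably expressing Gal4-DBD/mouse RORγ fusion under metallothionein promoter plus UAS-luciferase; compound 1 h, then 700 uM CuSO4 induction for 20 h at ambient temperature; inhibition read as reduced luminescence.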
Potency is the fitted concentration of half-maximal effect.

Potency, active:
CC(=O)N1N=C(c2ccccc2)OC1c1ccc([N+](=O)[O-])s1 (configuration not stated) 12.6 µM, CC(C)(C)C1CCC(=NNC(=O)c2cc(-c3ccccc3)n[nH]2)CC1 (configuration not stated) 11.2 µM, COc1ccc(OCC(=O)NNC(=S)NC(=O)c2ccc([N+](=O)[O-])cc2)cc1 5.62 µM, C/C(=N\Nc1nc2ccccc2s1)c1ccc(Br)s1 7.08 µM, O=C(NCC1CCCO1)C(=O)N/N=C/c1cc(Cl)ccc1O (configuration not stated) 12.6 µM, O=C(N/N=C/c1c(O)n(-c2ccc(Cl)cn2)c(=O)c2ccccc12)C1CC1 5.62 µM, COc1cc(/C=N/Nc2ncc(C(F)(F)F)cc2Cl)cc(OC)c1O 11.2 µM, O=C(O)c1ccc(/C=N/Nc2ccc(F)cc2F)cc1 12.6 µM, COc1cccc(/C=N/Nc2nc(Nc3ccc([N+](=O)[O-])cc3)nc(N3CCCC3)n2)c1O 4.47 µM

Potency, inconclusive:
Cc1cc(C)cc(-n2nnc(C(=O)NCc3ccco3)c2N)c1 14.1 µM [activator, single point], C/C(=N\Nc1cc(N2CCOCC2)ncn1)c1ccccc1 35.5 µM [inhibitor, single point], Cc1cc(C(=O)COC(=O)Cc2n[nH]c(=O)c3ccccc23)c(C)n1-c1cccc(C(F)(F)F)c1 14.1 µM [activator, partial curve, poor fit], COc1ccc(N2CCN(C(=O)c3cccc(Cn4cc(Cl)cn4)c3)CC2)cc1 31.6 µM [activator, single point], COc1cccc(C(=O)NN2c3ccccc3CCc3ccccc32)c1 31.6 µM [inhibitor, partial curve, poor fit], COc1ccc(NS(=O)(=O)c2ccc(Br)cc2)cn1 35.5 µM [activator, single point], O=C(Nc1ccc(S(=O)(=O)Nc2ccccc2F)cc1)N1CCCCC1 22.4 µM [activator, single point], O=C(Cc1csc(-c2ccccc2)n1)NCc1cccs1 35.5 µM [activator, single point], CC(C)(C)c1ccc(OCCC(=O)Nc2cccc(S(=O)(=O)N3CCCCC3)c2)cc1 28.2 µM [activator, single point], O=C(Cc1ccccc1)NNc1c2ccccc2nc2ccccc12 35.5 µM [inhibitor, single point], CCCOc1ccc(N2C(=O)CC(N3CCN(c4ccc([N+](=O)[O-])cc4)CC3)C2=O)cc1 (configuration not stated) 35.5 µM [inhibitor, single point], CC(C)/C=C1\CC/C(=C\c2cccnc2)C1=O 35.5 µM [inhibitor, single point], COc1ccc(CSC(=N)N)cc1[N+](=O)[O-] 35.5 µM [inhibitor, single point], O=[N+]([O-])c1ccc(Sc2nnnn2-c2ccccc2)c(Cl)c1 14.1 µM [inhibitor, single point], COC(=O)CSc1nnc(-c2ccccn2)n1Cc1ccco1 3.98 µM [activator, full curve, poor fit], Cc1ccc(OCc2cc(C(=O)N3CCCCCCC3)no2)cc1C 11.2 µM [activator, partial curve], NNC(=O)C(Cc1cnc[nH]1)NC(=O)OCc1ccccc1 (configuration not stated) 17.8 µM [activator, single point], CCC(NC(=O)Nc1nnc(C(F)(F)F)s1)(C(F)(F)F)C(F)(F)F 5.01 µM [inhibitor, full curve, poor fit], Cc1ccc(NC(=S)N/C(=N/S(=O)(=O)c2ccccc2)c2ccccc2)cc1 35.5 µM [inhibitor, single point], O=C(c1ccccc1)N1CCC(c2nc(-c3ccc(S(=O)(=O)N4CCOCC4)cc3)no2)CC1 5.62 µM [activator, partial curve, poor fit], O=C(Nc1ccc(N2CCN(C(=O)c3cccs3)CC2)cc1)c1cccc(F)c1 11.2 µM [activator, partial curve], Cc1ccc(-c2nc3ccc(Cl)cc3c(=O)n2O)cc1 15.8 µM [inhibitor, partial curve], CCn1cc(CN2CCC(C(=O)Nc3cccc(-c4cccc(Cl)c4)c3)CC2)c(C)n1 17.8 µM [inhibitor, single point], N#Cc1c(NC(=O)/C=C/c2ccco2)sc2c1CCCC2 0.562 µM [activator, full curve, poor fit], COc1ccc(C(C(=O)NC2CCCCC2)N(C(=O)c2snc(C(N)=O)c2N)c2ccc(OC)cc2OC)cc1 (configuration not stated) 2.82 µM [activator, full curve], Cc1ccc(N(C)S(=O)(=O)c2cccc(C(=O)NC3=NCCS3)c2)cc1 35.5 µM [inhibitor, single point], Cc1cc(OCC(=O)c2ccc(Br)cc2)ccc1N1C(=O)CCC1=O 28.2 µM [inhibitor, single point], CCN(CC)S(=O)(=O)c1ccccc1/C=N\O 35.5 µM [inhibitor, single point], CN1/C(=C\C(=O)c2ccco2)C(C)(C)c2ccccc21 35.5 µM [inhibitor, single point], COc1cccc(-n2c(N)c(-c3nc4ccccc4[nH]3)sc2=S)c1 15.8 µM [inhibitor, single point], Cc1cc(NC(=O)Cc2csc(-c3ccccc3)n2)ccc1Br 17.8 µM [activator, single point], Cc1ccc([N+](=O)[O-])cc1NC(=O)c1ccc(C(C)(C)C)cc1 20 µM [activator, single point], CN(Cc1ccccc1)C(=S)Nc1ccc(OC(F)F)cc1 35.5 µM [inhibitor, single point], CCOC(=O)c1c(N)sc(C(=O)Nc2ccc3c(c2)OCO3)c1C 25.1 µM [inhibitor, single point], c1ccc(CNc2nc(NCc3ccccc3)c3ccccc3n2)cc1 25.1 µM [inhibitor, single point], Cc1ccc(NS(=O)(=O)c2ccc(NC(=O)C3CCCO3)cc2)cc1 (configuration not stated) 35.5 µM [inhibitor, single point], CC(C)CC(=O)OC1C(N2CCOCC2)c2c(ccc(/C=C/C(=O)N3CCOCC3)c2O)OC1(C)C (configuration not stated) 14.1 µM [activator, single point], O=C(NNC(=S)NC(=O)C12CC3CC(CC(C3)C1)C2)c1ccncc1 39.8 µM [inhibitor, partial curve, poor fit]

Potency, inactive:
O=C(CC(C(=O)O)c1cccc(Cl)c1)c1ccccc1 (configuration not stated), COc1ccc(C(c2nnnn2CC2CCCO2)N2CCN(c3ccccc3)CC2)cc1 (configuration not stated), CCOC(=O)c1c(NC(=O)CN2CCCCC2)sc(CN(C)C)c1-c1ccccc1, O=C(Nc1cccc(C(F)(F)F)c1)C(Sc1ncnc2ccccc12)c1ccccc1 (configuration not stated), O=C(CCc1c[nH]c2ccccc12)NCc1ccncc1, Cn1c(=O)cc(NCCc2ccccc2)[nH]c1=O, NC(=O)C(c1ccc(Cl)cc1)c1ncc(C(F)(F)F)cc1Cl (configuration not stated), CCc1nc(SCC(=O)N2CCN(c3ccccc3)CC2)c2c(=O)n(C)c(=O)n(C)c2n1, Fc1ccc(-c2cnn3c(-c4ccncc4)ccnc23)cc1, CNS(=O)(=O)c1cccc(C(=O)NCC(c2cccs2)N(C)C)c1 (configuration not stated), CCOC(=O)C(NCc1ccccc1OC)(NC(=O)c1ccccc1)C(F)(F)F (configuration not stated), C/C(=N\NC(=O)C1CC1)c1cccnc1, CC(=O)N1CCN(c2ccc(NC(=O)c3ccc([N+](=O)[O-])o3)cc2Cl)CC1, CSc1nnc(-c2cc(C)on2)n1-c1ccccc1, CC(O)c1nc2ccccc2n1C1CCCCC1 (configuration not stated), CC(=O)Oc1ccc(NC(=O)Cc2ccccc2)c(C(=O)O)c1, CC(Oc1ccccc1)C(=O)Nc1nc2c(s1)C(=O)CC(C)(C)C2 (configuration not stated), O=C(NNC1CC(=O)N(c2ccccc2)C1=O)c1ccco1 (configuration not stated), Nc1ccccc1C(=O)N(Cc1ccccc1)Cc1ccccc1, CCN(CC(=O)NCc1ccc(Cl)cc1)CC(=O)NC1(C#N)CCCC1, Nc1nc(N)nc(-c2ccccn2)n1, CCOC(=O)Nc1ccc2c(c1)N(C(=O)CN(CC)CC)c1ccccc1C=C2, Cc1ccc(C(=O)Cn2ncsc2=N)cc1, C[N+](C)(C)C(Cc1ccccc1)C(=O)[O-] (configuration not stated), COc1ccc(-c2nc3ccc(C(=O)NCC(OC)OC)cc3nc2-c2ccc(OC)cc2)cc1, COC(=O)Cn1c(=NC(=O)CSC(C)=O)sc2ccccc21, O=C(O)c1cccc(S(=O)(=O)N(Cc2ccccc2)c2cccc(C(F)(F)F)c2)c1, CCOc1ccc(Nc2n[nH]c(=S)s2)cc1, COC(=O)/C(=C\c1cc(OC)c(OC)c(OC)c1)c1nc2ccccc2[nH]1, O=C(Nc1ccc(C(F)(F)F)cc1)C1CCCN1S(=O)(=O)c1cccc2cccnc12 (configuration not stated)
